Experimental data: patent US9255088B2, “Premature-termination-codons readthrough compounds” (The Regents of the University of California, priority 2010, dated 2016)
At least one compound was matched to its structure with a doubt left. Some of these results come from one statement about several compounds together.

Legend:
AT153LA cells (TGA A) = test: Colony survival assay (CSA), radiosensitivity of A-T LCLs; assay type: cell-based, human; conditions: 10 and 20 μM; untreated 13.5%
Experimental: Because the radiosensitivity of A-T cells results from the ATM deficiency, we next investigated whether RTC#13 and #14 can abrogate A-T cell's radiosensitivity of A-T cells. AT153LA cells (TGA A) were treated with compounds for 4 d and followed by CSA. One wild-type cell line and one different A-T cell line were used as assay quality controls. […] These were within the normal (>36%) and radiosensitive (<21%) range, respectively (FIG. 7, right two bars). […] The definition of CSA range used was previously established in our laboratory and is used for clinical A-T diagnosis (see Materials and methods).
AT153LA cells (TGA A) were treated with compounds and the CSA was measured. […] In FIG. 7, the symbol (*) denotes results fall within the ranges characterized by Sun et al. J Pediatr, 140(6):724-31, 2002. […] Results were consistent in three independent experiments.
CSA was performed as previously described (Sun et al., 2002, J. Pediatr. 140:724-731). After 4 d of incubation with compounds, LCLs were plated, in duplicate, in 96-well plates at 100 and 200 cells per well. One plate was exposed to 1.0 Gy radiation, whereas the other was left unirradiated. The cells were incubated for 10-13 d and then stained with MTT. The presence of a colony of 32 cells was scored as a positive well, and survival fractions were calculated.

[1] = system: plasmid-TAT51: ATM region 5 fragment with nonsense (PTC) mutation c.5623C→T (TGA C); test: PTT-ELISA readthrough assay, plasmid-TAT51 (TGA C)

| Compound | CSA survival fraction range (AT153LA cells (TGA A)) | concentration range over which readthrough activity was detected [1] |
| --- | --- | --- |
| CC(C)(C)c1ccc(O)c(N=Cc2cccc([N+](=O)[O-])c2)c1 [RTC14, 4-tert-butyl-2-[(3-nitrobenzylidene)amino]pheno] | 21-36% |  |
| CN[C@@H]1[C@@H](O)[C@@H](O[C@@H]2[C@@H](O)[C@H](O[C@H]3O[C@H]([C@@H](C)O)[C@@H](O)[C@H](O)[C@H]3N)[C@@H](N)C[C@H]2N)OC[C@]1(C)O [Compound G418, reference compound] |  | 40 nM-10 μM |
